PubChem BioAssay AID743121, NCATS | 2013
The deposit covers about 26,000 reagents; this is a part drawn at random. Of all reagents, 167 (0.63%) are marked active. 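Calls are per gene from RSA p-values that are not deposited; an individual active-marked siRNA can sensitise only weakly.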 Reagents against one gene are numbered here.

Purpose: 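Partners whose loss is lethal together with topoisomerase I blockade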 (primary screen)
Cells: MDA-MB-231 cells, a human breast cancer line
Knock-down reagent: single siRNA against human genes, 20 nM siRNA (0.8 pmol per well)
Duration: 120 h (drug added 48 h after transfection, read 72 h later)
Challenge: camptothecin 20 nM (about EC30) for 72 h; vehicle 0.1% DMSO in parallel plates
Measured: 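CellTiter-Glo ATP signal, scaled to control siRNA as percent viability; sensitisation given as log2 of untreated divided by camptothecin-treated viability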
Scale: log2 vehicle/camptothecin viability: higher = stronger sensitisation to camptothecin; viability with camptothecin and viability without drug: higher = more viable cells
Active means: 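Active genes have an RSA gene-level p-value below 0.001, computed from the ratios of their separate siRNAs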

log2 vehicle/camptothecin viability | viability with camptothecin (% of control) | viability without drug (% of control) | activity call | gene symbol | siRNA no.
-0.142 | 115 | 104 | inactive | KIF20B (kinesin family member 20B) | 1
0.013 | 88.9 | 89.7 | inactive | KIF20B (kinesin family member 20B) | 2
-0.181 | 111 | 97.9 | inactive | KIF20B (kinesin family member 20B) | 3
-0.406 | 106 | 80.1 | inactive | KIF20B (kinesin family member 20B) | 4
-0.241 | 81.6 | 69 | inactive | CLIC1 (CLIC family member 1) | 1
0.012 | 91.4 | 92.2 | inactive | CLIC1 (CLIC family member 1) | 2
0.0166 | 52.6 | 53.2 | inactive | CLIC1 (CLIC family member 1) | 3
-0.221 | 22.7 | 19.5 | inactive | CLIC1 (CLIC family member 1) | 4
0.253 | 36 | 42.9 | inactive | FAS (Fas cell surface death receptor) | 1
-0.417 | 77.4 | 58 | inactive | FAS (Fas cell surface death receptor) | 2
-0.163 | 85.6 | 76.4 | inactive | FAS (Fas cell surface death receptor) | 3
0.231 | 72.4 | 85 | inactive | FAS (Fas cell surface death receptor) | 4
-0.472 | 93.9 | 67.7 | inactive | ACTL6B (actin like 6B) | 1
0.0387 | 58.6 | 60.2 | inactive | ACTL6B (actin like 6B) | 2
-0.337 | 81.7 | 64.6 | inactive | ACTL6B (actin like 6B) | 3
0.0461 | 70.6 | 72.9 | inactive | ABCB7 (ATP binding cassette subfamily B member 7) | 1
-0.356 | 90.8 | 70.9 | inactive | ABCB7 (ATP binding cassette subfamily B member 7) | 2
-0.493 | 107 | 75.7 | inactive | ABCB7 (ATP binding cassette subfamily B member 7) | 3
-0.317 | 53.4 | 42.9 | inactive | FGF8 (fibroblast growth factor 8) | 1
0.285 | 54.5 | 66.4 | inactive | FGF8 (fibroblast growth factor 8) | 2
0.156 | 22.5 | 25.1 | inactive | FGF8 (fibroblast growth factor 8) | 3
-0.566 | 46.8 | 31.6 | inactive | FGF8 (fibroblast growth factor 8) | 4
-0.597 | 28.5 | 18.8 | inactive | FGF8 (fibroblast growth factor 8) | 5
-0.0674 | 99.3 | 94.8 | inactive | FGF8 (fibroblast growth factor 8) | 6
-0.268 | 88.6 | 73.6 | inactive | PALS1 (protein associated with LIN7 1, MAGUK p55 family member) | 1
-0.109 | 103 | 95.6 | inactive | PALS1 (protein associated with LIN7 1, MAGUK p55 family member) | 2
-0.0634 | 92.3 | 88.3 | inactive | PALS1 (protein associated with LIN7 1, MAGUK p55 family member) | 3
0.163 | 95.9 | 107 | inactive | PALS1 (protein associated with LIN7 1, MAGUK p55 family member) | 4
-0.346 | 57.8 | 45.5 | inactive | TBL3 (transducin beta like 3) | 1
-0.605 | 63.5 | 41.7 | inactive | TBL3 (transducin beta like 3) | 2
-0.313 | 66.6 | 53.6 | inactive | TBL3 (transducin beta like 3) | 3
-0.361 | 73.6 | 57.3 | inactive | TBL3 (transducin beta like 3) | 4
-0.18 | 61.3 | 54.1 | inactive | NRDC (nardilysin convertase) | 1
-0.135 | 76.2 | 69.4 | inactive | NRDC (nardilysin convertase) | 2
0.532 | 28.4 | 41.1 | inactive | NRDC (nardilysin convertase) | 3
-0.0698 | 80.3 | 76.5 | inactive | NRDC (nardilysin convertase) | 4

A portion of the results above, for reference:
log2 vehicle/camptothecin viability | viability with camptothecin (% of control) | viability without drug (% of control) | activity call | gene symbol | siRNA no.
-0.181 | 111 | 97.9 | inactive | KIF20B (kinesin family member 20B) | 3
-0.406 | 106 | 80.1 | inactive | KIF20B (kinesin family member 20B) | 4
-0.241 | 81.6 | 69 | inactive | CLIC1 (CLIC family member 1) | 1
0.012 | 91.4 | 92.2 | inactive | CLIC1 (CLIC family member 1) | 2
0.0166 | 52.6 | 53.2 | inactive | CLIC1 (CLIC family member 1) | 3
-0.221 | 22.7 | 19.5 | inactive | CLIC1 (CLIC family member 1) | 4
0.253 | 36 | 42.9 | inactive | FAS (Fas cell surface death receptor) | 1
-0.417 | 77.4 | 58 | inactive | FAS (Fas cell surface death receptor) | 2
-0.163 | 85.6 | 76.4 | inactive | FAS (Fas cell surface death receptor) | 3
0.231 | 72.4 | 85 | inactive | FAS (Fas cell surface death receptor) | 4

Further records follow:
log2 vehicle/camptothecin viability | viability with camptothecin (% of control) | viability without drug (% of control) | activity call | gene symbol | siRNA no.
-0.00139 | 75.7 | 75.6 | inactive | TNFSF4 (TNF superfamily member 4) | 1
-0.257 | 84.1 | 70.4 | inactive | TNFSF4 (TNF superfamily member 4) | 2
0.29 | 51.7 | 63.3 | inactive | TNFSF4 (TNF superfamily member 4) | 3
-0.278 | 126 | 104 | inactive | TNFSF4 (TNF superfamily member 4) | 4
-0.411 | 108 | 81.6 | inactive | KRT8 (keratin 8) | 1
-0.0194 | 99.8 | 98.5 | inactive | KRT8 (keratin 8) | 2
-0.309 | 113 | 91.3 | inactive | KRT8 (keratin 8) | 3
-0.614 | 77.8 | 50.8 | inactive | RNF13 (ring finger protein 13) | 1
-0.159 | 81.1 | 72.6 | inactive | RNF13 (ring finger protein 13) | 2
0.183 | 35.8 | 40.6 | inactive | RNF13 (ring finger protein 13) | 3
0.049 | 41.6 | 43.1 | inactive | ELAVL4 (ELAV like RNA binding protein 4) | 1
-0.117 | 83.8 | 77.3 | inactive | ELAVL4 (ELAV like RNA binding protein 4) | 2
-0.138 | 76.1 | 69.2 | inactive | ELAVL4 (ELAV like RNA binding protein 4) | 3
-0.442 | 74.8 | 55.1 | inactive | MAP2 (microtubule associated protein 2) | 1
0.0208 | 75.5 | 76.6 | inactive | MAP2 (microtubule associated protein 2) | 2
-0.294 | 98.8 | 80.6 | inactive | MAP2 (microtubule associated protein 2) | 3
0.0943 | 88.7 | 94.7 | inactive | MAP2 (microtubule associated protein 2) | 4
0.359 | 69.3 | 88.9 | inactive | WNT5A (Wnt family member 5A) | 1
-0.284 | 113 | 92.5 | inactive | WNT5A (Wnt family member 5A) | 2
-0.391 | 88.3 | 67.3 | inactive | WNT5A (Wnt family member 5A) | 3
-0.324 | 56.4 | 45.1 | inactive | CELA3B (chymotrypsin like elastase 3B) | 1
-0.114 | 103 | 95.3 | inactive | CELA3B (chymotrypsin like elastase 3B) | 2
-0.244 | 73.2 | 61.8 | inactive | AZU1 (azurocidin 1) | 1
-0.478 | 97 | 69.6 | inactive | AZU1 (azurocidin 1) | 2
-0.506 | 33.2 | 23.4 | inactive | AZU1 (azurocidin 1) | 3
0.105 | 65.1 | 70 | inactive | AZU1 (azurocidin 1) | 4
0.557 | 41.9 | 61.6 | inactive | HBEGF (heparin binding EGF like growth factor) | 1
-0.0669 | 99.5 | 95 | inactive | HBEGF (heparin binding EGF like growth factor) | 2
-0.386 | 102 | 77.9 | inactive | HBEGF (heparin binding EGF like growth factor) | 3
-0.0246 | 123 | 121 | inactive | SLC35H1 | 1
0.0471 | 113 | 117 | inactive | SLC35H1 | 2
0.627 | 48.1 | 74.4 | inactive | SLC35H1 | 3
0.843 | 46.7 | 83.8 | inactive | SLC35H1 | 4
